# Assay results as given in PubChem BioAssay AID463116 (University of Pittsburgh Molecular Library Screening Center, 2010).
# The list shows a part of the results. The main result of the screen is listed elsewhere. These columns were measured beside it and carry no call. Most of these compounds were active or inconclusive in the main read-out, so they are no random draw.
# Assay: blockers of dexamethasone-driven GR-EGFP nuclear import – imaging, high-content imaging, GR-EGFP cells, confirmation (AID 463116)
# Details: 3617.4 GR-EGFP nuclear translocation imaging, dexamethasone-induced; measured here: cell count per field; at 20 µM
row,SMILES,z-score
1,O=C(Oc1oc(-c2ccco2)nc1C=Nc1ccccc1)c1ccoc1,0.506
2,O=c1c(C(c2nnnn2C2CCCCC2)N2CCCCC2)coc2ccc(Cl)cc12 (stereo not given),0.237
3,CCOC(=O)c1c(NC(=O)/C=C\C(=O)O)sc(C)c1-c1ccccc1,0.279
4,COc1ccc(CC(=O)n2[nH]c(=O)ccc2=O)cc1OC,0.733
5,COC(=O)[C@@]1(Cc2ccccc2)[C@@H]2C(=CC(=O)[C@H]2CC(=O)C(=O)N(C)C)CN1C(=O)c1ccccc1,0.16
6,Cc1cc(C)c2c(=O)n(CC(=O)N3CCC(N4CCCCC4)CC3)sc2n1,-0.0907
7,CN(C)CCCN(C(=O)CCOc1ccccc1)c1nc2c(F)cccc2s1,0.493
8,CCOn1c(=O)c(-c2ccc(OC)c(OC)c2)[n+]([O-])c2ccccc21,0.591
9,CCN1CCN(C2=C(Cl)C(=O)N(Cc3ccccc3)C2=O)CC1,0.727
10,O=[N+]([O-])c1ccc(/C=C/C2=NN(c3ccccc3)C(c3ccco3)C2)o1 (stereo not given),0.839
11,O=[N+]([O-])c1c(NCCCO)cc(Sc2ccc(Cl)cc2)c2nonc12,0.0603
12,CCCNC(=O)c1nnsc1S(=O)(=O)c1ccc(Cl)cc1,-0.372
13,COc1ccc(-c2cc(C(F)(F)F)nc(S(=O)(=O)CCCC(=O)Nc3cc(C)on3)n2)cc1OC,0.273
14,O=[N+]([O-])c1c(NCCCO)cc(Sc2nc3ccccc3s2)c2nonc12,0.3
15,O=C(Cn1ncc(Cl)c(Cl)c1=O)N1CCN(Cc2ccccc2)CC1,0.344
16,O=C(NC1CCCC1)C(c1ccc(F)cc1)N(Cc1ccc(Cl)cc1)C(=O)CCl (stereo not given),0.871
17,O=C(O)CCN1C(=O)/C(=C\c2ccc(-c3nc4ccccc4s3)o2)SC1=S,0.115
18,CC(=O)n1cc(N(C(=O)CCl)c2ccc([N+](=O)[O-])cc2)c2ccccc21,0.185
19,CCCCN1C(=O)/C(=C/C=C2\N(C)c3ccccc3C2(C)C)SC1=S,0.289
20,CCOC(=O)c1c(-c2ccc(C)o2)csc1NC(=O)CN1CCCCC1,0.118
21,COc1ccc(C(=O)/C=C/C(=O)N(CC(=O)NCCC(C)C)Cc2cccs2)c(O)c1,0.369
22,c1cncc(-c2nc(-c3ccco3)cs2)c1,0.434
23,S=c1[nH]nc(-c2cc(-c3ccccc3)n[nH]2)n1/N=C/C(Br)=C/c1ccccc1,0.843
24,COCCCNC(=O)c1ccc2c3c(onc13)-c1ccccc1C2=O,0.336
25,CCOC(=O)CC1C(=O)NCCN1c1nc2ccc(C)cn2c(=O)c1/C=C1\SC(=S)N(C(C)CC)C1=O (stereo not given),0.246
26,CCc1ccc(/C=C/C(=O)c2c(C)cc(C)[nH]c2=O)cc1,0.289
27,CC(=O)O[C@@H]1C[C@H]2C(C)(C)C(=O)C=C[C@]2(C)[C@H]2CC[C@@]3(C)[C@H](c4ccoc4)OC(=O)[C@H]4O[C@]43[C@@]21C,0.403

row,SMILES,z-score
1,N/C(=C\C(=O)c1cc(Cl)ccc1O)C(Cl)(Cl)Cl,0.0252
2,Cn1nnnc1SC1CC(=O)N(c2ccccc2)C1=O (stereo not given),0.392
3,CC1CC(C)(C)Nc2ccc(N=O)cc21 (stereo not given),-0.121
4,CN(Cc1ccc(Cl)s1)C(=O)CCl,0.193
5,O=c1cc(-c2c(F)c(F)c(F)c(F)c2F)oc2c(F)c(F)c(F)c(F)c12,0.274
6,CCOC(=S)SCC(=O)Nc1nc(C)c(C)s1,-0.00753
7,CCOC(=S)SCC(=O)Nc1ncc(C)s1,0.146
8,Cc1ccc2[nH]c(=O)c(CN(CCCO)S(=O)(=O)c3c(C)ccc4nsnc34)cc2c1,0.37
9,O=C(/C=C/c1ccco1)Nc1ccccc1N1CCCC1,0.155
10,CCOC(=O)c1c(C)sc2c1N(C(=O)CCl)c1cc(Cl)ccc1S2,0.296
11,O=C(NC1CCCCC1)C(c1cccnc1)N(C(=O)CCl)c1cccc(Cl)c1 (stereo not given),0.311
12,Cc1cc(S(=O)(=O)Nc2cc(C)c(O)c(C)c2)c(C)s1,-0.039
13,CC(C)c1ccc(/C=C/C(=O)n2nnc3ccccc32)cc1,-0.0508
14,CC1OC(OC2C(OC3C(O[C@H]4CC[C@]5(C)C6C=C[C@]78OC[C@@]9(CC[C@@H](C)[C@H](C)C97)[C@H](O)C[C@@]8(C)[C@]6(C)CC[C@H]5C4(C)C)OC(C)C(O)C3O)OC(CO)C(O)C2O)C(O)C(O)C1O (stereo not given in full),-5.06
15,COc1ccc(C(=O)/C=C/C(=O)N(CC(=O)NC2CCCCC2)Cc2ccc(F)cc2)c(O)c1,-1.39
16,Cc1ccc(CN=Cc2[nH]c3ccc(Br)c(Cl)c3c2O)cc1,0.109
17,Cc1nc([N+](=O)[O-])c(Br)n1CC(=O)c1ccc(Br)cc1,0.7
18,COc1ccc(C(=O)C(CN2CCCC2)c2ccccc2)cc1 (stereo not given),0.395
19,Cc1ccc2cc(CN(CC3CCCO3)C(=S)NCc3ccco3)c(=O)[nH]c2c1 (stereo not given),0.214
20,Cc1ccccc1N1C(=O)CC(Sc2nnc(-c3ccccc3)o2)C1=O (stereo not given),-0.536
21,O=C(CCl)N1CCN2C(=O)c3ccccc3C12c1ccc(Cl)cc1 (stereo not given),-0.0243
22,CC(C)(C)c1ccc(C(=O)CC(Sc2ccc(Cl)cc2)C(=O)O)cc1 (stereo not given),0.161
23,C=C(CCC(=O)c1ccccc1)C(=O)c1ccccc1,-0.709
24,CN(C)c1oc(-c2ccccc2[N+](=O)[O-])nc1C#N,0.317
25,O=c1cc(C(Cl)(Cl)Cl)oc2c1ccc1ccccc12,0.0481
26,COC(=O)c1cc(=O)n(CCc2ccc(OC)c(OC)c2)c(=Nc2ccc(F)c(Cl)c2)s1,0.43
27,CC1=NN(c2ccccc2)C(=O)/C1=C/C=C/c1ccccc1,0.987

row,SMILES,z-score
1,O=C(Nc1ccc(Cl)cc1)/C(=C/c1cccc(O)c1)c1nc2ccccc2s1,-0.212
2,CCN(CC)c1ccc(/C=C2/SC(=O)N(C(C)C)C2=O)o1,-0.0463
3,C#CC(=O)N(c1cc(OC)ccc1OC)C(C(=O)NC1CCCC1)c1cccs1 (stereo not given),-0.722
4,COc1ccc(-n2cccc2/C=C/[N+](=O)[O-])cc1,0.0783
5,O=C(OCCN1C(=O)c2cccc3c(N4CCOCC4)ccc(c23)C1=O)c1ccc(Cl)cc1Cl,0.285
6,COC(=O)c1cc(=O)n(Cc2ccc(F)cc2)c(=Nc2ccccc2)s1,0.0771
7,CC1CCc2cc(F)ccc2N1C(=O)CCl (stereo not given),-0.109
8,COc1ccccc1NS(=O)(=O)c1cc([N+](=O)[O-])ccc1N/N=C/c1c[nH]c2ccccc12,0.927
9,CCCCCCN(C(=O)CCl)c1ccccc1,0.247
10,CC1=CC(=O)C(C(C)C)=CC1=NC(=O)c1ccc(C)cc1,0.0272
11,COC(CN(C(=O)CCl)C(C(=O)NC1CCCC(C)C1C)c1ccc(C)cc1)OC (stereo not given),-0.105
12,COC(=O)c1ccc(-n2c(C)cc(C(=O)CCl)c2C)cc1,0.474
13,Cc1onc(-c2ccccc2)c1-c1nc2cc(Cl)ccc2c(=O)o1,-0.806
14,O=C1C=CC(=O)N1c1cccc(-c2ccccc2)c1,-3.78
15,O=c1[nH]c2ccccc2c2oc(CCl)nc12,-0.143
16,COc1ccc(-c2c(C#N)c(N)nc3sc(C(=O)c4ccccc4)c(N)c23)cc1,0.138
17,CC(=O)c1sc2nc(-c3cccs3)cc(C(F)(F)F)c2c1N,0.554
18,CC1(C)Cc2c(sc3c4nnnn4c4nnnn4c23)CO1,0.814
19,COc1ccc(C(=O)Cn2c(C)nc([N+](=O)[O-])c2Br)cc1,-0.551
20,N#CC(C#N)=Cc1cc2ccccc2nc1N1CCCCC1,-0.161
21,COC(=O)C1=C(C)N(Cc2ccc(C)cc2)C(=O)/C1=C\c1cc(OC)c(OC)c(OC)c1,-0.224
22,N#CC1=C(N)C(C#N)(C#N)C(c2ccncc2)C2CN(C(=O)OCc3ccccc3)CC=C12 (stereo not given),0.0706
23,Cc1nn(-c2ccccc2)c(Cl)c1CN(C(=O)CCl)c1ccc(Cl)cc1,-0.842
24,CN(C)S(=O)(=O)c1cccc(-n2sc3ccccc3c2=O)c1,0.633
25,O=C(NC1CCCC1)C(c1ccc(F)cc1)N(Cc1ccc(F)cc1)C(=O)CCl (stereo not given),0.699
26,CC1=NOC(=O)/C1=C\c1ccc(-c2ccccc2Br)o1,0.22
27,CCC(=O)OCCNc1cc(Sc2nccn2C)c2nonc2c1[N+](=O)[O-],-1.29

# 3 entries drawn at random from those above:
row,SMILES,z-score
13,CC(C)c1ccc(/C=C/C(=O)n2nnc3ccccc32)cc1,-0.0508
21,COC(=O)C1=C(C)N(Cc2ccc(C)cc2)C(=O)/C1=C\c1cc(OC)c(OC)c(OC)c1,-0.224
11,O=C(NC1CCCCC1)C(c1cccnc1)N(C(=O)CCl)c1cccc(Cl)c1 (stereo not given),0.311

# Next compounds follow:

row,SMILES,z-score
1,CCOC(=O)C(C(=O)OCC)C(C(=O)OCC)N1CCOCC1 (stereo not given),0.201
2,CCN(CC)c1ccc(/C=C/c2cc(-c3ccccc3)c3ccccc3n2)cc1,0.299
3,COc1ccc([N+](=O)[O-])c(S(=O)(=O)c2ccc(Cl)cc2)n1,0.421
4,CCOc1cc(/C=C2\C(=O)N(CCc3ccc(OC)c(OC)c3)C(C)=C2C(=O)OC)ccc1O,0.0247
5,N#CC1=C(N)OC2=C(CC/C2=C\c2ccccc2)C1c1ccccc1 (stereo not given),0.0473
6,CC(C)(C)C(=O)Cn1ncc(Cl)c(Cl)c1=O,0.651
7,CCCc1cc(NC(=O)CCl)n(-c2ccccc2)n1,0.664
8,CC(C)(C)C(=O)Cn1ncc(Br)c(Br)c1=O,0.335
9,COc1ccc(C(=O)c2sc3nc(C)cc(-c4cccs4)c3c2N)cc1,-0.0913
10,COC(=O)C(=C/C(C)=C/c1cccnc1)C(=O)OC,-0.0161
11,O=[N+]([O-])c1ccc(Sc2ncccn2)c([N+](=O)[O-])c1,-1.05
12,COc1ccccc1C1Nc2cccc3cccc(c23)N1,0.733
13,O=C1N/C(=C/c2ccc(N3CCOCC3)o2)C(=O)N1c1cccc(Cl)c1,-0.678
14,O=C(NC1CCCCC1)C(c1cccnc1)N(C(=O)CCl)c1ccc(F)cc1 (stereo not given),0.847
15,O=c1c(Cl)nc2cc(Cl)ccc2n1CCNc1ncc(C(F)(F)F)cc1Cl,-2.29
16,Cc1ccc(C2=NOC(=O)/C2=C\C=C\c2ccccc2)cc1,-1.24
17,Cn1cc(C(=O)CCl)c2ccccc21,-0.126
18,CC(=O)N(C1CC(C)C(C#N)(C#N)C1(C#N)C#N)N(C)C (stereo not given),0.641
19,CCCSc1cc(NCCOC(=O)CCC)c([N+](=O)[O-])c2nonc12,-1.01
20,Cc1nc([N+](=O)[O-])c(Br)n1CC(=O)c1ccc(Cl)cc1,0.654
21,Cc1nc(COC(=O)c2cc(O)c3ccccc3c2O)cs1,0.453
22,COCc1cc(S(=O)c2ccc(Cl)cc2)nc(C)n1 (stereo not given),0.46
23,CC(=O)N(C)Cc1ccc(C(=O)CCl)cc1,0.17
24,O=C(/C=C/c1ccc(F)cc1)c1cc(Br)ccc1O,-0.255
